Results: patent publication US20140227280A1 (CENTRE NATIONAL DE LA RECHERCHE SCIENTIFIQUE, published 2014)

Amino acid sequences for entries named in this document (tags omitted). Residues count along the entry.
UniProt P97310, 2-904 limits assumed: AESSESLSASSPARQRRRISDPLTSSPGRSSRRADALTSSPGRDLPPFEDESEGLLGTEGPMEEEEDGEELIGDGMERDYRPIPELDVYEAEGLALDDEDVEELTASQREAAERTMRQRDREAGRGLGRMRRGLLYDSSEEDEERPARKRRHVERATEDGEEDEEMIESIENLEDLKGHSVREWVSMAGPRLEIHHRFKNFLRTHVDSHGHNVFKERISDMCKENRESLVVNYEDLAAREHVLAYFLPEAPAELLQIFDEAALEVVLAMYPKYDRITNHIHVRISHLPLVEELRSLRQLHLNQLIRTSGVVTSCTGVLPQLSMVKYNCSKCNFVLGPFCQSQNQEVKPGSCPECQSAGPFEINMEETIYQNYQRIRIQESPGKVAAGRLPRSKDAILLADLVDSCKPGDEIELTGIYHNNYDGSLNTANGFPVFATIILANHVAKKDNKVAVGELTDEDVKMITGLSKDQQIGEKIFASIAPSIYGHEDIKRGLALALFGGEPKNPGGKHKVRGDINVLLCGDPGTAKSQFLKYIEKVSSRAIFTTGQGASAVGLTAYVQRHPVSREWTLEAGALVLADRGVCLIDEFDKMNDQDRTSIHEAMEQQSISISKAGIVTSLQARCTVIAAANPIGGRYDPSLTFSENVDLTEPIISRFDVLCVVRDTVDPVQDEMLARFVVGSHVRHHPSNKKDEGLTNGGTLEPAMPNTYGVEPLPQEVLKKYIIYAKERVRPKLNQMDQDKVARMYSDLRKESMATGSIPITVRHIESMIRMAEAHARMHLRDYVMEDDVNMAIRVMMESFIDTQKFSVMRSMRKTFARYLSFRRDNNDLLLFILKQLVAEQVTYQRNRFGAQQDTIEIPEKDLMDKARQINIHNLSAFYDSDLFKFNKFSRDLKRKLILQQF

Experiments:
MCM2 = molecular target: T1, MCM2 (mouse, UniProt P97310 2-904); experiment: co-immunoprecipitation from mouse testes extracts, western blot (FIG. 18A)
T1 construct: Detected by western blot (sc-9839) in the immunoprecipitates from mouse testes extracts; also called member of the MCM2-7 complex
Description: (§1) FIG. 18A represents immunoprecipitations of MCM8 (IP anti-MCM8; lane C) and MCM9 (IP anti-MCM9; lane D) from testes extracts blotted against MCM9 (panel 1), MCM8 (panel 2), MCM2 (panel 3) and MCM5 (panel 4). To normalize the loading, IgGs of each IP are also shown (panel 5).

MCM5 = molecular target: T2, MCM5 (mouse, UniProt P49718 2-734); experiment: as above
T2 construct: Detected by western blot (sc-22780) in the immunoprecipitates from mouse testes extracts; also called member of the MCM2-7 complex
T2 sequence (looked up): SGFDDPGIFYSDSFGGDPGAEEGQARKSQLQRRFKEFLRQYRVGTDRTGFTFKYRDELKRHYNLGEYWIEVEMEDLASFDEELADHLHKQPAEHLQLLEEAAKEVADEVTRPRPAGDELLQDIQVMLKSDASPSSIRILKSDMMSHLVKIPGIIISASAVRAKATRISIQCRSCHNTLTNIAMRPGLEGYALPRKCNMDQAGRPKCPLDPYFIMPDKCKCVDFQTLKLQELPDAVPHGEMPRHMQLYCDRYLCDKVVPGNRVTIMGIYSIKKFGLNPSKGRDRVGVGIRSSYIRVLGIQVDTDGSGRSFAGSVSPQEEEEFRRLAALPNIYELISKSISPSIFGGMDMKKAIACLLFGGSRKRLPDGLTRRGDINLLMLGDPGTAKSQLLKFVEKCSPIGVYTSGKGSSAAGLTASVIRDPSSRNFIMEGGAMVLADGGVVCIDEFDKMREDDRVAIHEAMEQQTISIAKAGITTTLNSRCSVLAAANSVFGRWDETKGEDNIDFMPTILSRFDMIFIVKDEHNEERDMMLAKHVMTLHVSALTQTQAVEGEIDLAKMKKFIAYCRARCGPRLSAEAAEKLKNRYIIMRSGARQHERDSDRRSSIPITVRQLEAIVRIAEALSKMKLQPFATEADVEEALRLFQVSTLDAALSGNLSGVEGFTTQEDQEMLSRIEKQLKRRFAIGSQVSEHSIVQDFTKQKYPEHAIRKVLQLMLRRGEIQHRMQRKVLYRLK
Description: as §1

- binding result (MCM2): no binding
- binding result (MCM5): no binding
B1: mouse MCM9 protein (other)
chain: MDQRTTRNGKYCDVEPVSRSNPAPCLRDPPLRRLVRPKPRLQLPESRLSPCSRLPLADSSVRPGARPPASAPGRSPSGRKVEAVRGSGSAGSSSPSEAEREQREEACAPPRKAAPSSGRAHAPPPPTPRGSGWGDHGRSAVPATKTVRVEPYPPFKMNSEQVTLVGQVFESYVSEYHKNDILLILKERDEDAHYPVVVNAMSLFETNMEIGDYFTVFPNEVLTVFDSALRRSALAILQSLPETEGLSMKQNLHARISGLPVCPELVREHIPKTKDVGHFLSVTGTVIRTSLVKVLEFERDYMCNKCKHVFMVEADFEQYYTFSRPSSCPSLASCDSSKFSCLSDLSSSPARCRDYQEIKIQEQVQRLSVGSIPRSMKVILEDDLVDSCKSGDDLTIYGVVMQRWKPFQRDVRCEVEIVLKANYVQVNNEQSSGMVMDEDTRKEFEDFWEHYKSDPFAGRNEILASLCPQVFGMYLVKLAVAMVLAGGIQRTDAAGTRVRGESHLLLVGDPGTGKSQFLKYAAKITPRSVLTTGIGSTSAGLTVTAVKDSGEWNLEAGALVLADAGLCCIDEFNSLKEHDRTSIHEAMEQQTISVAKAGLVCKLNTRTTILAATNPKGQYDPKESVSVNIALGSPLLSRFDLVLVLLDTRNEDWDRIISSFILENKGYPSKSENLWSMEKMKTYFCLIRNLHPTLSEVSNQVLLRYYQMQRQSDSRNAARTTIRLLESLIRLAEAHARLMFRSAVTLEDAVTAVSVMESSMQGGALLGGVNALHTSFPENPRAQYQRQCELILEKLELQGLLQEELRRLERLQNESVHQCQSHSLEEEVAPGSCRNDPRDKPRLRTSTQQEQSCSWSSTERSGADSPPGPGLNRPTSCNNSAENRDGRGDGLDWLDPTSSPEIAPESTIVSPNVKTTEKNVNLKISNNKSQGKEKHGPQQRSKLLEAGHLPSSGAMNAPLRSHGVKRTKASQAVVVSEAGRGDEEDSVPRRLPKLLKEGSQNVCRSTTRVRPLPPTVPLSLSIPSPGSGKRSGTPKRKRRKSAQVEEPEPEGMETPTVKLAKFTFKQKTKLTHSPEGQGPIPPSASEIAVDSSKIPQQRTRREAAVPVVAPGKSTSTSGDRCSDQLHGKTKELSRQPPDSNPPREEREQGPKRRVIQPKPELGNQAGHSHLACEKDRKEGVSCGNKSSKVHAGTIARLASFSFTSPSESKSESLPPERKDSRDSRDSRDSRDRCHSPPATTAPVLGQQRQTFQLQQPTERANLSTLSLFTLSELDDEALDFDWEEEMRKKP
notes: Endogenous protein in mouse testes extracts and MEF cell extracts
